Data on one substance can be found in publication PMC3979232.

Amino acid sequences for entries named in this document (tags omitted).
UniProt A2AM29: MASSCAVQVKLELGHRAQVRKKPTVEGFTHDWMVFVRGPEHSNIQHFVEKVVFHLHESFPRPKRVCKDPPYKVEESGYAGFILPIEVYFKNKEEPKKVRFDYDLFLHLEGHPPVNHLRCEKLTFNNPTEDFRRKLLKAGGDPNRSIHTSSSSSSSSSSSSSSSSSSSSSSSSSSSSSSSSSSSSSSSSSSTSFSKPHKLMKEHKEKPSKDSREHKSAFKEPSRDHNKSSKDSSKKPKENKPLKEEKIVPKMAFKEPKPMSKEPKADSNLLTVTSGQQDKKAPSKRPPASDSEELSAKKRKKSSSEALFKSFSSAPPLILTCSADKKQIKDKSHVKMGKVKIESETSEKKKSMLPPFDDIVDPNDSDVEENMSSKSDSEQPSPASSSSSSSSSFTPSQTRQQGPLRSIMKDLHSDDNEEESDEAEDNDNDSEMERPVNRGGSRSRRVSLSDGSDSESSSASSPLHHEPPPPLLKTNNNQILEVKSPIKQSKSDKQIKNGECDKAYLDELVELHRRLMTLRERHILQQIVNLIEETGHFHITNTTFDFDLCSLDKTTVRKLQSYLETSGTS
UniProt Q9CQJ4: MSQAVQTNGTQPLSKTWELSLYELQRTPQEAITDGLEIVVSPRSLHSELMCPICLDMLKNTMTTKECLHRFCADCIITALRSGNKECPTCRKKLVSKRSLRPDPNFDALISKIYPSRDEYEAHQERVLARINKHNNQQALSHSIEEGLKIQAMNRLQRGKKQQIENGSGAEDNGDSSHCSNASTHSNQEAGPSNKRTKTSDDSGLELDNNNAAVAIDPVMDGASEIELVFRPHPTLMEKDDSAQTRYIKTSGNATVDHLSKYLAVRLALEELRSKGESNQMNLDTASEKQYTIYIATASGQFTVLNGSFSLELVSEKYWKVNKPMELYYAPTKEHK

No constants are given. Whether binding was seen depends on the method and setting. In cells and extracts the contact can be indirect. Some results given as binding are weak or reduced against the parent protein; the word gives no strength.

The assay deals with Af9 (ALL1-fused gene from chromosome 9 protein), endogenous in mIMCD3 cells (mouse (endogenous in mIMCD3)) (UniProt A2AM29). The assay is described as follows: co-IP; whole cell lysates of mIMCD3 cells in RIPA buffer, precleared; immunoprecipitated with anti-Af9 antibody or isotype control IgG overnight at 4°C, protein A/G-agarose; immunoblot with anti-Rnf2 antibody; endogenous proteins.

Take “Rnf2 (RING finger protein 2), endogenous in mIMCD3 cells (from UniProt Q9CQJ4 1-336)”: the binding result is recorded as “binds”.
